Test results from publication PMC12040169 (PLOS Biology, 2025).
Some of the results follow.

test system: T1, CTL2-GFP (C. trachomatis L2/434/Bu, GFP-expressing); design: species or system HeLa; Intracellular C. trachomatis growth in HeLa cells, bulk GFP fluorescence relative to DMSO; settings: bulk GFP, single well; 28.5 h, 10 µM; inhibitor
T1 construct: L2/434/Bu, GFP-expressing

Row | SMILES | % of control remaining [%]
1 | Nc1ccc(Cc2ccc(N)c(O)c2)cc1O [CBK261149] | 107.161
2 | N#C/C(=C/c1ccc(-c2cc(C(=O)O)cc(C(=O)O)c2)o1)c1nc2ccccc2s1 [CBK266754] | 227.728
3 | CCOC(=O)c1cccc(-n2ncc(-c3ccc(F)cc3)n2)c1 [CBK112908] | 122.493
4 | COc1ccccc1-c1cc(Nc2ccc(NS(=O)(=O)c3ccc(C)cc3)cc2)ncn1 [CBK037819] | 105.415
5 | CC(=O)NC[C@H]1CN(c2ccc3c(c2)CCN(C(=O)Cc2ccccc2)CC3)C(=O)O1 [CBK018499] | 0
6 | Cc1nnc(C(C)Sc2nnc(N3CCC(C)CC3)n2Cc2ccco2)o1 (centres unmarked) [CBK298311] | 133.633
7 | COc1ccc(C2(C(=O)NCCN3CCCC3)CC2)cc1 [CBK149824] | 105.096
8 | CCCC/C=C/c1cncc(N2CCN(C(=O)c3ccco3)CC2)n1 [CBK037918] | 158.734
9 | CC(=O)N1CCCC1C(=O)N1CC(C(=O)Nc2nc3c(C)cc(C)cc3s2)C1 (centres unmarked) [CBK286039] | 126.107
10 | CCOC(=O)C1=C(Nc2ccc([N+](=O)[O-])cc2)S/C(=C\c2ccc(O)c(OC)c2)C1=O [CBK263873] | 128.881
11 | O=C(CSc1nnc(-c2ccncc2)n1-c1ccccc1)N1CCN(Cc2ccccc2)CC1 [CBK267240] | 145.678
12 | O=C(COc1ccc(S(=O)(=O)NC2CCCCC2)cc1)Nc1cccc2ccccc12 [CBK266023] | 99.6171
13 | COc1ccc(Br)cc1S(=O)(=O)NCCCN1CCOCC1 [CBK264050] | 128.116
14 | Cc1ccc2nc(C(=O)O)cc(C(=O)O)c2c1 [CBK261174] | 109.337
15 | O=C(CNC(=O)c1cccc(F)c1)N/N=C1/C(=O)N(Cc2ccc3c(c2)OCO3)c2ccccc21 [CBK263519] | 85.9618
16 | COc1ccc(C(=O)N2CCC3(CCCN(C(=O)Cc4ccc(Cl)c(Cl)c4)C3)C2)cc1OC (centres unmarked) [CBK131654] | 111.237
17 | CCC(Sc1nnc2c3ccccc3n(C)c2n1)C(=O)Nc1sc2c(c1C#N)CCCC2 (centres unmarked) [CBK263031] | 109.622
18 | Sc1nnc(COc2ccc(-c3ccccc3)cc2)n1-c1ccccc1 [CBK264964] | 100
19 | CCCCc1cc(=O)oc2cc(OC(C)C(=O)O)c(Cl)cc12 (centres unmarked) [CBK265166] | 100
20 | CO[C@]1(c2ccc(Cl)cc2)CC[C@H](NCCCC(=O)c2ccc(F)cc2)CC1 [CBK015959C] | 106.043
21 | CS(=O)(=O)Nc1cc(-c2noc([C@@H]3CCCN3C3CCOCC3)n2)ccn1 [CBK288887] | 128.55
22 | CN(C(=O)CN1CCOC(Cn2cccn2)C1)C1(C#N)CCCCC1 (centres unmarked) [CBK305335] | 129.87
23 | O=C(N/N=C/c1cccnc1)C1CCCN(S(=O)(=O)c2ccccc2)C1 (centres unmarked) [CBK262712] | 128.52
24 | COc1ccc(C=CC(=O)N(C)c2ccccc2C(=O)O)cc1 [CBK296135] | 94.5269
25 | CCc1c(C)nc(N)nc1N1N=C1SC(C(C)=O)C(C)=O [CBK268558] | 85.6049

As entered above.
In % of control remaining [%], O=C(N/N=C/c1cccnc1)C1CCCN(S(=O)(=O)c2ccccc2)C1 (centres unmarked) [CBK262712] has the entry 128.52
In % of control remaining [%], CCCC/C=C/c1cncc(N2CCN(C(=O)c3ccco3)CC2)n1 [CBK037918] has the entry 158.734

More structures:

Row | SMILES | % of control remaining [%]
26 | CC(=O)NCCn1cc2c(n1)[C@H]1CN(C(=O)C3CCC3)C[C@H]1CC2 [CBK284584] | 103.343
27 | COc1ccc(OC)c(NS(=O)(=O)N(C)C)c1 [CBK005362] | 102.125
28 | COc1cc(/C=N/NC(=O)CCNc2n[nH]c(=O)[nH]c2=O)cc(Br)c1O [CBK263494] | 100
29 | O=S(=O)(/N=C/N1CCCC1)c1ccccc1 [CBK023272] | 99.2624
30 | O=C(NCc1ccc(Cl)cc1)c1cnc2ccc(C#CCO)cc2c1O [CBK017979] | 90.8572
31 | O=C(NCc1ccccc1)C(=O)NNC(=O)C12CC3CC(CC(C3)C1)C2 [CBK262951] | 131.804
32 | O=C(Nc1ccc2c(c1)OCO2)c1cccc(I)c1 [CBK058308] | 119.322
33 | CC1CN(CC(=O)NC(C)(C)c2ccccc2)CC(C)N1 (centres unmarked) [CBK051693] | 115.719
34 | Cc1cnc2[nH]c(C(F)(F)F)c(CN3CCOCC3)c2c1 [CBK284766] | 166.032
35 | O=c1cc(O)c2ccccc2n1Cc1ccccc1F [CBK291162] | 133.904
36 | CC(C)(O)c1cn(C2CN(C(=O)c3sccc3-c3ccccc3)C2)nn1 [CBK305442] | 121.389
37 | CCCN1CCC(CNC(=O)c2cc3c(OC)cccc3n2C)CC1 [CBK283255] | 143.737
38 | O=C(Nc1ccc(N2CCN(C(=O)c3ccco3)CC2)cc1)c1cccnc1 [CBK270034] | 88.5309
39 | CC(=O)Nc1ccc(F)c(NC(=O)NCCN2CCCOC2=O)c1 [CBK307166] | 114.159
40 | CCOc1cc(NC(=O)N2CCC(Cc3cnn(C)c3)C2)ccc1C (centres unmarked) [CBK305295] | 142.229
41 | CN(Cc1nnc(-c2ccc(C(C)(C)C)cc2)o1)C(=O)C1CCCO1 (centres unmarked) [CBK307597] | 122.841
42 | Cc1nc2ccc(C(=O)NCCCc3ccccn3)cc2s1 [CBK282478] | 129.357
43 | CCNc1ccn([C@H]2C[C@@H](O)[C@@H](CO)O2)c(=O)n1 [CBK201311] | 117.967
44 | COc1cccc(/C=C\c2[nH]c(=O)[nH]c(=O)c2[N+](=O)[O-])c1OCC(=O)O [CBK266822] | 198.954
45 | Nc1nc(N)c(Cc2ccc(Cl)cc2Cl)c(N)n1 [CBK009425] | 124.001
46 | FC(F)(F)c1ccc(OCc2ccc(Cl)c(Cl)c2)nc1 [CBK115831] | 219.985
47 | Clc1cccc(-c2cn3ccnc3c(NCc3cccnc3)n2)c1 [CBK066237] | 91.5236
48 | C=CCOc1ccc2ccccc2c1CNc1nc[nH]n1 [CBK267296] | 149.023
49 | CC(=O)N1CC[C@H]2NC(=O)CNC(=O)C3(CCCC[C@H]2C1)CCN(C(=O)CC1CCOCC1)CC3 [CBK292030] | 103.753
50 | CC12CCC(C(=O)Nc3ccccc3)(OC1=O)C2(C)C (centres unmarked) [CBK018129] | 64.6221
